According to PMC7956376:
Results are given in words; binding and its absence hold for the method and conditions named. Some binding calls cover weakened binding; strength is not graded here. Tags and fused reporters may be left off the sequences shown.

T1: StSN2 full length fused to pGBKT7 (SN2-BD) (potato (Solanum tuberosum, cultivar Chuanyu 10)) (UniProt Q93X17)
T1 sequence: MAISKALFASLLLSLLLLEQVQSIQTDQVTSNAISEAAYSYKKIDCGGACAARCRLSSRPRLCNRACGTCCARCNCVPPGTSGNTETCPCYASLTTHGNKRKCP

B1: Prx10 fused to pGADT7 (enzyme, UniProt M1CCJ9 1-359)
chain: MASTTLYTLASSLVLILSIFVSIHFQVTKAQGTQPIVKGLSWTFYDSICPNAESIIRRRLQNVFRQDIGQAAGLLRLHFHDCFVQGCDGSVLLDGSTSGPSEKDAPPNLTLRQQAFRIIEDLRRRVHRDCGRVVSCADITAIAARDSVFFSGGPDYDLPLGRRDGLTFATLNETLANLPPPSFNTSLILASLATKNFTPTDVVALSGGHTIGISHCTSFTERLYPNQDSSMDKTFANNLKITCPTTNSTNTTVLDIRSPNKFDNKYYVDLMNRQGLFTSDQDLYTDRRTRGIVTSFAINESLFFQEFVNSMIKMGQLNVLTGTQGQIRANCSVRNSNNYNLILPSSLGDQEKQGTWSEI
B2: Prx2 fused to pGADT7 (enzyme, UniProt M1AU65 1-322)
chain: MASSKNNTMVFLFLLVTLLIGSSSAQLSTSFYSKSCPKLYQTVKSTVQSAIKKETRMGASLLRLFFHDCFVNGCDGSLLLDDTSSFTGEKRAAPNVNSVRGFEVIDNIKSAVEKACPGVVSCADILAVTARDSVVILGGPNWNVKLGRRDARTASQGAANSSIPAPTFNLNRLISSFSAVGLSTKDMVALSGSHTIGQARCTTFRARIYNETNSIDSSFARTRQNSCPRNSGSGDNNLAPLDLQTPSKFDNNYFKNLVNKKGLLHSDQQLFNGGSADSIVRSYINNPSSFNSDFVTAMIKMGDIRPLTGSNGEIRKNCRRRN
B3: Prx9 fused to pGADT7 (enzyme, UniProt M1A251 1-334)
chain: MALGATHLSLAFCLMALIVLVKADFDGKKEPINNILEQNSEMLTQDFCIFAAVGSVVAEAIARERRMGASLIRLFFHDCFVDGCDAGILLDDIPGRFQGEKTSPPNNNSVRGYQVIDQAKQRIKTMCPGAAVSCADILALAARDSVAMLGGIPYPVSLGRKDARTANFTGALIQLPAPFDDLNVQLKKFSDKGMSAREMVALVGSHTVGFARCVTLCDDRNINPAMKSTLKCGCPVSNNNTNLVPLDLMTPDFFDKFYYEDLIRNQGLLFSDQVLMGSTATANVVRTYNSNPALFLREFNDAMIKMGNLPPSRGVQLEIRNVCSKVNGNSIADM

Target: T1, StSN2 full length fused to pGBKT7 (SN2-BD) (potato (Solanum tuberosum, cultivar Chuanyu 10))
Experiment: two-hybrid; SN2 full length in pGBKT7 (bait), peroxidases in pGADT7; yeast AH109; selection on SD-Trp-Leu, growth on SD/-Leu-Trp-His, beta-galactosidase activity (X-gal)

binding, binds:
B1
B2
B3
